Results taken from US9981050B2 (Institute of Nuclear Energy Research, Atomic Energy …, priority 2015, dated 2018).

Test: peptide synthesis
Conditions: conjugation step

Work on NOTA-c(RGDyk)-cys-6-ahx-GE11 yielded a conjugation yield of 43%.
